Experimental findings from US4508657 (dated 1985) are described below.

A short description of this data set: general procedure: solution-phase peptide synthesis; polymeric active esters. The conditions noted are these: whole synthesis.

As for Climoc-Gly-Gly-Phe-Leu-Obzl, the isolated yield turned out to be 74% yield.
